Measurements as given in PubChem BioAssay AID1259415 (National Center for Advancing Translational Sciences (NCATS), 2018).
In all, about 410,000 compounds went through this assay and about 18,000 (4.4%) were called active. Inconclusive means that the source gave no clear call. Such entries were picked first, then a sample of the others. Rule as the data show it: active = activity change below about -60%; inconclusive = no clear call, values can overlap the other calls; inactive = above about -39%.

Test: qHTS Assay for inhibitors of the human cytomegalovirus (HCMV)
Conditions: HFF cells, HCMV-luciferase reporter, 72 h; at 57.5 µM; hits give low values
Procedure, shortened: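 Cell-based, HFFs, 1000 cells/well, 16 h 37C; cpds in DMSO + HCMV-luc, MOI 1 PFU/cell; 72 h 37C; OneGlo luminescence after 5 min RT; norm. to buffer vs Salinomycin 10uM.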
% is scaled to controls: 0 for no effect and ±100 for the full control effect.

Compound	activity change, negative = inhibition
CCN(CC)c1ccc(/C=N/OC(C)C(=O)Nc2ccc(C)cc2)cc1 (stereo not given)	inconclusive: -42.4%
Cc1cccc(C)c1OCc1n[nH]c(=S)n1-c1ccccc1	inconclusive: -56.5%
CCN(CC)C(=O)CCCOc1ccc(Cl)cc1Cl	inactive: -2.69%
COc1ccc(C(=O)Nc2ccc(C)cn2)c(OC)c1	active: -76.4%
CN(C)S(=O)(=O)N1CCC(C(=O)O)(c2ccccc2)CC1	inconclusive: -57.2%
O=C(NCC1CCCO1)c1ccc(Oc2ccc([N+](=O)[O-])cc2)cc1 (stereo not given)	inactive: -23.2%
COc1cc(C(=O)C(=O)N2CCN(c3ccccc3)CC2)cc(OC)c1OC	inactive: -5.7%
O=C(C1CCC(=O)N(C2CC2)C1)N1CCC(Oc2ccccc2F)CC1 (stereo not given)	inactive: 15.5%
CCCC(=O)C1=C(c2ccc(C)cc2)N(C(=O)CCC)n2cnnc2S1	active: -94.6%
COc1cc(C2Nc3c(F)cccc3C3C=CCC32)cc(Br)c1OC (stereo not given)	inactive: -14.4%
COc1ccc(C(C(=O)NC2CCCCC2)N(C(=O)CCl)c2ccccc2Cl)cc1 (stereo not given)	active: -97.5%
O=[N+]([O-])c1cnccc1Nc1ccc(Cl)cc1	inconclusive: -43%
S=C(/N=c1/sccn1Cc1ccccc1)NC1CC1	inconclusive: -59.7%
COc1ccc(N(CC(=O)O)S(=O)(=O)c2c(C)n[nH]c2C)cc1	inconclusive: -43.6%
Cc1oc(-c2ccc(C(=O)Nc3cccc(C(F)(F)F)c3)cc2)nc1CSc1ccccc1	active: -98.1%
CCOc1cccc(CNCCO)c1OCc1ccc(Cl)cc1	inconclusive: -52.8%
CC(C)c1ccc(C2(C)NC(=O)N(CC(=O)N3CCN(C(=O)c4cccs4)CC3)C2=O)cc1 (stereo not given)	inconclusive: -50.2%
CCOC(=O)C1(Cc2ccccc2C(F)(F)F)CCN(CCCn2cccn2)CC1	inconclusive: -40.1%
O=C(/C=C/c1ccccc1)CC(O)(c1ccccc1)C(F)(F)C(F)F (stereo not given)	inconclusive: -48.3%
COc1ccc(OC)c(NS(=O)(=O)c2c(C(=O)N3CCCCCC3)c(C)n(C)c2C)c1	inconclusive: -42.2%
CCOc1ccccc1N1CCN(CC(=O)Nc2nc(C)c(C(=O)N(C)C)s2)CC1	inconclusive: -52.2%
COc1ccc(Nc2nc(Nc3ccc(OC)cc3)nc(-n3[nH]c(=O)c(C)c3C)n2)cc1	inactive: 13.3%
COc1cccc(O)c1CN1CCC(C(=O)Nc2ccc(Oc3cccnc3)cc2)CC1	inconclusive: -48.9%

Compound	activity change, negative = inhibition
Cc1nn(-c2ccccc2)nc1C(=O)OCC(=O)N1CCCCC1C (stereo not given)	inactive: 37.5%
O=C(O)c1ccc(Nc2cnc3ccccc3n2)cc1	inactive: 69.4%
Cc1c(C)n(Cc2ccccc2)c2ccc(C(=O)NCc3ccc(OC(C)C)cc3)cc12	inconclusive: 0%
O=C(CN1CCCCC1)NNc1nc(-c2ccccc2)c2cc(Cl)ccc2n1	inconclusive: -43.4%
COc1ccc(-n2c3c(c(=O)[nH]c2=O)C(NC(=O)c2ccncc2)(C(F)(F)F)C(=O)N3)cc1 (stereo not given)	inactive: -37.8%
OC(CN1CCN(c2cccc(Cl)c2)CC1)C(c1ccccc1)c1ccccc1 (stereo not given)	inconclusive: -43.5%
C/C=C/c1ccc(OCC(=O)NCc2ccccc2OC)c(OC)c1	inconclusive: -42.9%
[O-][n+]1nc2ccccc2c2ccccc21	inconclusive: -40.8%
O=C(/C=C/c1ccc2c(c1)OCO2)c1c(O)n(CCc2ccccc2)c(=O)[nH]c1=O	active: -84.5%
CCCCC1(CCC)C(=O)NC(=S)NC1=O	inconclusive: -53.2%
O=C(CN(c1cc(C(F)(F)F)ccc1Cl)S(=O)(=O)c1ccccc1)NCCc1ccccc1	active: -70.4%
CCN(CC)C(=O)c1oc2ccc(S(=O)(=O)N3CC(C)CC(C)C3)cc2c1C (stereo not given)	active: -87.9%
CSc1ccc(CNCc2ccc3c(c2)OCO3)cc1	inconclusive: -53.4%
COc1cccc(NC(=O)CCSc2ccc3ccccc3n2)c1	inactive: -0.809%
Cc1nc(N/N=C\c2ccc3c(c2)OCO3)sc1C	inactive: 98.3%
COc1ccncc1-c1csc(C(O)c2ccccc2)n1 (stereo not given)	active: -69.2%
O=C(CNC(=S)N(Cc1ccccc1)Cc1ccccc1F)NCCc1ccccc1	inconclusive: -56.5%
COc1ccc(NC(=O)c2sc(N)nc2-c2ccccc2)cc1	inconclusive: -41.4%
CCN(CC)S(=O)(=O)c1cccc(NC(=S)NC(=O)/C=C/c2ccc(S(=O)(=O)N3CCOCC3)cc2)c1	inactive: -16.9%
Cc1nn(-c2ccccc2)c2c1C(c1ccc(Cl)cc1)N(c1ccccc1)C(=O)N2 (stereo not given)	inconclusive: -59.8%
CN(C(=O)COc1ccccc1C(=O)NCc1ccccc1)C1CCS(=O)(=O)C1 (stereo not given)	inconclusive: -41.8%
CCCC(=O)Nc1ccc2c(c1)c1ccccc1n2CC	inconclusive: -45.9%
NCCS(=O)(=O)NC1CCCCC1	inconclusive: -43.5%

Compound	activity change, negative = inhibition
CCCOC(=O)C[N+](C)(C)CCOC1CC2CCC1(C)C2(C)C (stereo not given)	inconclusive: -46.8%
Cc1ccc(-c2nc(COC(=O)c3c(C)noc3C)cs2)cc1	inconclusive: -44.3%
Cc1ccc(CNC(=O)Cn2cc(S(=O)(=O)Cc3cccc(Cl)c3)c3ccccc32)cc1	inactive: 0%
Fc1cccc(Cc2c(-c3cccc(Cl)c3)nc3ccc(Cl)cn23)c1	inactive: 11.1%
Cc1ccc(N2CCN(C(=O)C3CCC(=O)N(Cc4ccc(Cl)cc4)C3)CC2)c(C)c1 (stereo not given)	inconclusive: -44%
c1ccc(CN2c3ccccc3-c3nc4ccccc4n3C2c2ccccn2)cc1 (stereo not given)	inconclusive: -42.8%
O=c1[nH][nH]c2cc(=O)n(-c3cccc(C(F)(F)F)c3)nc12	inconclusive: -49.8%
Cn1c(SCC(=O)Nc2ccc(N3CCOCC3)cc2)nnc1C(F)(F)F	inconclusive: 0%
OCCNCc1cc(Br)ccc1OCc1ccccc1	active: -67.6%
CCOC(=O)c1sc2nc3c(SCCC(=O)O)cc(C(=O)c4cc(OC)ccc4O)cn3c(=O)c2c1C	inconclusive: -59.7%
CN(C)CCCNc1cc(O)c2ncccc2c1	active: -77.6%
COCCNC(=O)C1(C)CCCN(CCS(=O)(=O)c2ccc(C)cc2)C1 (stereo not given)	inactive: 6.68%
Cc1oc(-c2ccccc2)nc1CNC(=O)NC1CCCCC1	inactive: -8.63%
COC(=O)c1cccc(NC(=S)NCCC2=CCCCC2)c1	inconclusive: -51.2%
O=C(Nc1ccccc1)Nc1csc2ccccc12	inconclusive: -53.2%
CSc1cccc(NS(=O)(=O)c2ccc(C(C)=O)cc2)c1	active: -67.6%
CCc1nnc(NC(=O)c2ccc(S(=O)(=O)N3CCCCC3C)cc2)s1 (stereo not given)	inconclusive: -42.2%
CC(C)(C)c1ccc(OCC(=O)N2CCN(c3ccccn3)CC2)cc1	active: -94.3%
Cc1ccc(NC(=O)c2cc(S(=O)(=O)NCCC3=CCCCC3)ccc2F)cc1C	inconclusive: -46.4%
CCOc1ccc(CCNc2ncnc3onc(-c4ccc(Cl)cc4)c23)cc1	inconclusive: -54.2%
O=C(CSc1nnnn1C1CC1)Nc1cccc(S(=O)(=O)N2CCCC2)c1	active: -74.8%
COc1ccccc1C(=O)C1CCCN(Cc2cn[nH]c2C2CCCCC2)C1 (stereo not given)	inactive: 33.2%
CCOC(=O)CSC1=C(C#N)C(c2ccc(C)s2)CC(=O)N1 (stereo not given)	inconclusive: -59%

Compound	activity change, negative = inhibition
O=C(OC(c1ccccc1)c1nccc2ccccc12)c1ccccc1 (stereo not given)	inconclusive: -48.7%
COc1cccc(C2Cc3ccccc3C(=O)O2)c1 (stereo not given)	inconclusive: -42%
Cc1ccc(NC(=O)COc2ccc3oc4c(c3c2)CCCC4)nc1	inconclusive: -52.2%
CC(NC(=O)COc1ccc(-c2nnco2)cc1)c1ccc(Cl)cc1Cl (stereo not given)	inactive: -22.4%
C=CCN1C(=O)c2ccc(C(=O)N(C)CC(=O)Nc3ccccc3C(F)(F)F)cc2C1=O	inactive: 6.68%
CC(=O)NCCC1CCCCN1Cc1nc(Cc2cccc(C(F)(F)F)c2)no1 (stereo not given)	inactive: -22.3%
CC1(C(=O)NS(=O)(=O)C2CC2)CCCN(C(=O)c2ccc3ccccc3c2)C1 (stereo not given)	inactive: -1.83%
Cc1nn(Cc2ccc(Cl)cc2)c(C)c1NC(=O)c1ccc([N+](=O)[O-])cc1	inconclusive: -47.9%
CSC1=NCCN1CCOc1ccccc1	inconclusive: -50.1%
O=C(Cc1csc(-c2ccc(F)cc2)n1)Nc1cccc(S(=O)(=O)NC2=NCCC2)c1	inconclusive: -49.8%
CCOC(=O)C1(CCOC)CCN(C/C=C/c2ccccc2OC)CC1	inactive: 10.4%
CCOC(=O)Nc1nnc(-c2cccc(OC)c2)s1	active: -65.5%
CCN(CC)c1cc(C)c2cc(NC(=O)c3ccccc3F)ccc2n1	active: -79.6%
CCCCCn1c(CCCNC(=O)c2cccc(C)c2)nc2ccccc21	active: -85.1%
CCN(C(=S)Nc1ccc(OC(F)F)cc1)C1CCCCC1	inconclusive: -51.2%
COc1ccc(-c2nc(CN(C)C(C)c3ccon3)c(C)o2)c(C)c1C (stereo not given)	inconclusive: -43.8%
COc1ccccc1NC(=O)CSc1nc2c(oc3ccccc32)c(=O)n1C	inconclusive: -48.8%
Cc1[nH]c2ccc(-c3nnc(SCC(=O)c4ccc(F)cc4)o3)cc2c1C	inconclusive: -41%
CCCCN1C(=O)C(CC(=O)NCCN2CCOCC2)CC(C(=O)N2CCCCCC2)=C1C (stereo not given)	inconclusive: -41.8%
Cn1c(SCC(=O)NC2CCCCCC2)nnc1-c1ccco1	inconclusive: -49.1%
O=[N+]([O-])c1ccc(N2CCN(c3ccc(F)cc3)CC2)nc1	inconclusive: -45.4%

Part of the list above, in markdown:

| Compound | activity change, negative = inhibition |
| --- | --- |
| COc1ccc(-c2nc(CN(C)C(C)c3ccon3)c(C)o2)c(C)c1C (stereo not given) | inconclusive: -43.8% |
| COc1ccccc1NC(=O)CSc1nc2c(oc3ccccc32)c(=O)n1C | inconclusive: -48.8% |
| Cc1[nH]c2ccc(-c3nnc(SCC(=O)c4ccc(F)cc4)o3)cc2c1C | inconclusive: -41% |
| CCCCN1C(=O)C(CC(=O)NCCN2CCOCC2)CC(C(=O)N2CCCCCC2)=C1C (stereo not given) | inconclusive: -41.8% |
| Cn1c(SCC(=O)NC2CCCCCC2)nnc1-c1ccco1 | inconclusive: -49.1% |
